In paper PMC3705371, “Helicusin E, Isochromophilone X and Isochromophilone XI: New Chloroazaphilones Produced by the Fungus Bartalinia robillardoides Strain LF550” (Marine Drugs, 2013):

Test system: Trichophyton rubrum
Assay: Antifungal assay, Trichophyton rubrum (optical density)
Type: cell-based
Settings: 72 h at 28 °C
Protocol: Trichophyton rubrum. The substances were dissolved in DMSO to a concentration of 10 mM and transferred into a 96-well microtiter plate. For screening purposes, the compounds were tested in a final concentration of 100 μM. For inoculation 5 × 10^4 spores mL^−1 from the fungal strain T. rubrum diluted in Sabouraud medium (1.0% peptone, 2.0% glucose·H2O, pH = 5.6) were added to the microtiter plate. After incubation for 72 h at 28 °C the optical density was measured.

Clc1ccccc1C(c1ccccc1)(c1ccccc1)n1ccnc1 [Clotrimazole, reference compound]
IC50: 0.2 µM
